Results as given in PubChem BioAssay AID504834 (National Center for Advancing Translational Sciences (NCATS), 2011).
The whole screen tested about 320,000 compounds, of which about 22,000 (6.9%) were called active. This list was built around the results that the source calls inconclusive (neither active nor inactive); the mix of calls is not that of the screen. Calls come from the whole dose curve; as a rule, active = well fitted inhibition curve with a large enough effect; inconclusive = small, poorly fitted or top-dose-only effect, or another doubt; inactive = no such curve, though single readings can be large or run the other way. A potency beside an inconclusive call is a rough fit, not a confirmed value.

assay: Primary qHTS for delayed death inhibitors of the malarial parasite plastid, 96 hour incubation; details: P. falciparum luciferase reporter growth; series mostly up to 28.7 µM; activity change, negative = inhibition: at the top concentration
Outline: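 Two parasite generations (96 h, 37 C, 5% CO2) of compound exposure in infected erythrocytes (0.05% parasitemia, 2% hematocrit). Luciferase-reporter P. falciparum; decreased luminescence indicates inhibited growth, aimed at apicoplast-acting delayed death.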
% is set by controls: 0 for no effect and ±100 for the full control effect; potency is the fitted concentration of half-maximal effect.

Compound | Potency | activity change, negative = inhibition
Cn1c(=O)c(C(=O)CCl)c(N)n(Cc2ccccc2)c1=O | inconclusive: 18.5 µM [inhibitor, single point] | 
O=C(Oc1ccc(OC(=O)c2ccco2)c(S(=O)(=O)c2ccc(Br)cc2)c1)c1ccco1 |  | inactive: 59.5%
Cc1cc(=O)n2[nH]c(-c3ccsc3-n3c(C)ccc3C)cc2n1 | active: 6.57 µM | 
COc1ccc(N2CCN(CC(=O)c3ccc(Cl)cc3)CC2)cc1 | inconclusive: 10.4 µM [inhibitor, single point] | 
CC(=O)c1ccc(N(C(=O)c2csnn2)C(C(=O)NC2CCCC2)c2ccccc2)cc1 (configuration not stated) |  | inactive: 17.7%
Cc1ccc(S(=O)(=O)c2nc(Nc3ccccc3)sc2Cl)cc1 |  | inactive: 0%
C=C1CCC2C(C)(C)[C@@H](O)CC[C@@]2(C)[C@@H]1COc1ccc2ccc(=O)oc2c1 (some centres not stated) | active: 5.22 µM | 
Cc1ccccc1C(=O)NC(=S)Nc1ccc(N2CCOCC2)cc1 |  | inactive: -4.21%
CCOc1ccc(/C(O)=C2/C(=O)C(=O)N(CCN(CC)CC)C2c2ccco2)cc1 (configuration not stated) | inconclusive: 18.5 µM [inhibitor, single point] | 
COc1ccc(C(=O)N2CCN(c3ncccn3)CC2)cc1[N+](=O)[O-] | inconclusive: 18.5 µM [inhibitor, single point] | 
O=C(O)CCC(=O)Nc1ccccc1N1CCOCC1 |  | inactive: 6.71%
CCCCc1nc2cc(Cl)ccc2o1 | inconclusive: 18.5 µM [inhibitor, single point] | 
Cc1ccc(-c2ocnc2C(=O)N2CCOCC2)cc1 | inconclusive: 10.4 µM [inhibitor, single point] | 
O=c1[nH]cccc1-c1nc2ccccc2n1Cc1cccc(F)c1 |  | inactive: 6.25%
CCOC(=O)C1(Cc2cccc(F)c2)CCN(CC(O)CO)CC1 (configuration not stated) |  | inactive: -0.157%
Cc1ccc(NC(=O)C(Nc2ccccc2)c2ccccc2)cc1 (configuration not stated) | inconclusive: 18.5 µM [inhibitor, single point] | 
COCCn1cnnc1SCC(=O)c1ccc(S(=O)(=O)N2CCCC2)cc1 |  | inactive: 33.3%
O=C(/C=C/c1ccc(Cl)c([N+](=O)[O-])c1)Nc1cccc(NC(=O)c2ccco2)c1 | inconclusive: 16.5 µM [inhibitor, single point] | 
Cc1ccc(N(Cc2ccccc2)C(=O)c2ccc(F)c(S(=O)(=O)N3CCOCC3)c2)cc1 | inconclusive: 2.33 µM [inhibitor, single point] | 
C=CCNC(=O)COC(=O)c1ccc(Cl)c(S(=O)(=O)N(Cc2ccccc2)c2ccccc2)c1 |  | inactive: 15%
COc1ccc(Nc2nc(C)nc3c2oc2ccccc23)c(OC)c1 |  | inactive: 10.8%
O=C(c1cc(-c2cccc(Cl)c2)on1)N1CCN(c2ccccc2)CC1 |  | inactive: 16.2%

Molecules from the list above containing fluorine, in the order listed:
Compound | Potency | activity change, negative = inhibition
O=c1[nH]cccc1-c1nc2ccccc2n1Cc1cccc(F)c1 |  | inactive: 6.25%
CCOC(=O)C1(Cc2cccc(F)c2)CCN(CC(O)CO)CC1 (configuration not stated) |  | inactive: -0.157%
Cc1ccc(N(Cc2ccccc2)C(=O)c2ccc(F)c(S(=O)(=O)N3CCOCC3)c2)cc1 | inconclusive: 2.33 µM [inhibitor, single point] | 
